Laboratory results published in PubChem BioAssay AID504467 (National Center for Advancing Translational Sciences (NCATS), 2011).
Out of some 330,000 compounds screened, about 7,700 (2.3%) were called active. This list was built around the results that the source calls inconclusive (neither active nor inactive); the mix of calls is not that of the screen. Calls come from the whole dose curve; as a rule, active = well fitted inhibition curve with a large enough effect; inconclusive = small, poorly fitted or top-dose-only effect, or effect the other way; inactive = flat fitted curve, though single readings scatter. Potencies beside an inconclusive call are fits to weak or partial responses and may not hold up.

Assay: qHTS screen for small molecules that inhibit ELG1-dependent DNA repair in human embryonic kidney (HEK293T) cells expressing luciferase-tagged ELG1; note: nearly all actives have a fitted effect of over 55% in size
Settings: HEK293T ELG1-luciferase reporter, luminescence, 16 h, DNA damage induced by 5-fluorouridine; series mostly up to 46.1 µM
How it was run: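 In this reporter screen, reduction of luminescence relative to DMSO vehicle indicated activity. Compounds and 5-fluorouridine were added together to 2,000 cells per well, incubated for 16 hr at 37 °C, then developed with ONE-Glo.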
Potency is the fitted concentration of half-maximal effect.

SMILES	Potency
O=C(Nc1cccc(Cl)c1)c1cc(S(=O)(=O)NCCc2ccc(Cl)cc2)ccc1F	inconclusive: 29.1 µM [inhibitor, single point]
CCNc1nc(=S)nc(NC(C)C)[nH]1	inactive
CC1(C(=O)Nc2cccc(-n3cnnn3)c2)Cc2ccccc2C(=O)O1 (stereo not given)	inconclusive: 32.6 µM [inhibitor, partial curve, poor fit]
CS(=O)(=O)c1ccc(Cl)c(NC(=O)Cc2c(F)cccc2Cl)c1	inconclusive: 25.9 µM [activator, single point]
Cc1c(O)c(=O)ccn1Cc1ccccc1	inconclusive: 20.6 µM [inhibitor, single point]
COc1ccc(Cl)cc1NC(=O)CN(C)C(=O)c1n[nH]c2ccccc12	active: 8.2 µM
COc1ccc(NC(=O)c2ccccc2NC(=O)C2CCCO2)cc1 (stereo not given)	inconclusive: 23.1 µM [activator, partial curve]
CCOC(=O)c1cc(-c2ccccc2)sc1NC(=O)CSc1nnnn1C	inconclusive: 29.1 µM [inhibitor, single point]
CCOC(=O)c1ccc(-n2cncn2)nc1	inconclusive: 23.1 µM [activator, partial curve, poor fit]
CCN(CC)CCOC(=O)c1ccc(NC(=O)COc2cc(=O)n(CC)c3ccccc23)cc1	inconclusive: 11.6 µM [activator, partial curve]
CCOC(=O)c1cc(C(=O)n2cc(Cl)cn2)nn1C	inactive
O=C(CCC(=O)Nc1ccccc1Cl)N/N=C/c1ccccc1	inactive
COc1ccc(C2=NN(C(=O)c3ccccc3)C(c3cccc([N+](=O)[O-])c3)C2)cc1 (stereo not given)	inconclusive: 23.1 µM [inhibitor, single point]
C[C@@H]1NC(=O)c2cc([N+](=O)[O-])cc(I)c2NCCCC[C@@H](C(N)=O)NC(=O)[C@H](CC(N)=O)NC1=O	inactive
CCOC(=O)C1=C(N)OC(CCl)=C(C#N)C1c1ccsc1 (stereo not given)	inactive
COC(=O)c1ccc(C(=O)Nc2ccc(C(C)C)cc2N)cc1	inconclusive: 10.3 µM [activator, partial curve]
O=C(Nc1ccccc1)c1ccc(NC2CCCCC2)c(S(=O)(=O)N2CCOCC2)c1	active: 14.6 µM
Cc1ccccc1/C=C1\OC(=O)c2ccccc21	inactive
C/C(=N\OC(=O)c1ccc(Cl)cc1)c1sc(-c2ccccc2)nc1C	inconclusive: 4.11 µM [activator, full curve]
NC(=O)C(c1ccc(Cl)cc1)c1ccc(Sc2ccc(Cl)cc2)nn1 (stereo not given)	inconclusive: 10.3 µM [inhibitor, partial curve, poor fit]

2 of the compounds above, in markdown:

| SMILES | Potency |
| --- | --- |
| CCOC(=O)c1cc(-c2ccccc2)sc1NC(=O)CSc1nnnn1C | inconclusive: 29.1 µM [inhibitor, single point] |
| CCOC(=O)c1ccc(-n2cncn2)nc1 | inconclusive: 23.1 µM [activator, partial curve, poor fit] |
